Data reported in PubChem BioAssay AID248 (DTP/NCI, 2004).
The list does not hold the whole screen: it is rich in T/C values a quarter to a half above the control, in often repeated tests (any T/C) and in doses without a T/C. Further doses and runs are listed elsewhere. T/C: endpoint of the treated group in % of that of the vehicle group. Some entries give survivors of the animals treated and no T/C: the source holds a T/C of zero for them, seemingly a mark for toxic or unscored doses. Some survivor counts are full or nearly so, which does not show that the dose was tolerated: survival well below the control is almost never listed, so the zero probably covers shortened survival too. Survivors were counted at the toxicity check, usually on the fifth day, unless a day is given; later deaths do not show. Schedules are NCI's codes, read here as Q, the interval in days (D) or hours (H), X, the number of doses. Where survival is the endpoint, this PubChem deposit counts one and a half times the control or more as active, and values a quarter to a half above the control carry no call in these data; other NCI protocols may use other cut-offs. Some T/C values are followed by the survivors on the day toxicity was checked, most often the fifth; where none is given, no animal had died by that day. Some doses were run more than once; the results are listed from low to high.

Tested on: L1210 leukemia ip in BDF1 mice, survival T/C
Experiment: NCI In Vivo Anticancer Drug Screen. Data for tumor model L1210 Leukemia (intraperitoneal) in B6D2F1 (BDF1) mice
Settings: T/C endpoint: mean survival time, higher T/C = longer survival

SMILES	T/C (dose: 12.5 mg/kg/injection, schedule: Q01DX009 (ip), vehicle: Klucel (hydroxypropylcellulose) (HPC))	survivor count (dose: 25.0 mg/kg/injection, schedule: Q01DX001 (ip), vehicle: Klucel (hydroxypropylcellulose) (HPC))	T/C (dose: 25.0 mg/kg/injection, schedule: Q01DX009 (ip), vehicle: Klucel (hydroxypropylcellulose) (HPC))	survivor count (dose: 50.0 mg/kg/injection, schedule: Q01DX001 (ip), vehicle: Klucel (hydroxypropylcellulose) (HPC))	T/C (dose: 75.0 mg/kg/injection, schedule: Q01DX001 (ip), vehicle: other)	survivor count (dose: 100.0 mg/kg/injection, schedule: Q01DX001 (ip), vehicle: Klucel (hydroxypropylcellulose) (HPC))	survivor count (dose: 200.0 mg/kg/injection, schedule: Q01DX001 (ip), vehicle: Klucel (hydroxypropylcellulose) (HPC))	survivor count (dose: 200.0 mg/kg/injection, schedule: Q01DX009 (ip), vehicle: Klucel (hydroxypropylcellulose) (HPC))	survivor count (dose: 200.0 mg/kg/injection, schedule: Q04DX003 (ip), vehicle: Klucel (hydroxypropylcellulose) (HPC))	survivor count (dose: 400.0 mg/kg/injection, schedule: Q01DX001 (ip), vehicle: Klucel (hydroxypropylcellulose) (HPC))	survivor count (dose: 400.0 mg/kg/injection, schedule: Q01DX009 (ip), vehicle: Klucel (hydroxypropylcellulose) (HPC))
CCN(CCP(c1ccccc1)c1ccccc1)CCP(c1ccccc1)c1ccccc1	127 and 140 % of control [5 of 6 alive]	6 of 6	125 % of control	6 of 6	134 % of control	6 of 6	6 of 6	1 of 6	2 of 6	6 of 6	–
CNc1ccccc1Cc1ccccc1	–	–	–	–	–	–	–	–	–	–	5 of 6
